From PMC11224324
No constants are given. Whether binding was seen depends on the method and setting. Tags and fused reporters may be left off the sequences shown.

Target: Cal_Ypd1, Ypd1 from Candida albicans (residues 12-184), Streptag removed (Candida albicans) (UniProt Q59WC6)
Assay: SEC-MALS; 40 µg of protein injected on PROTEIN KW-803 (Shodex); 50 mM Hepes pH 7, 150 mM NaCl; 0.45 ml/min; both purified

B1: Cal_Ypd1, Ypd1 from Candida albicans (residues 12-184), Streptag removed (protein, UniProt Q59WC6 12-184)
chain: SGLVDWAVFSEIVTMDEDEEGFSKSLVEVFVSQVEETFEEIDKYLKEKNLEKLSSSGHFLKGSAAALGLTKISNQCERIQNYGHKINFDNFQLEDIKTKGDSAVSAENVAVNDGETNPENGSNGNETSNNKTNTSNIPDESSDDFWIALIEDALAKARDGFDQSRRALDEYYE
binding: no binding (tested: 40 µg of protein injected)
